Results reported in PubChem BioAssay AID256 (DTP/NCI, 2004).
The list does not hold the whole screen: it is rich in T/C values a quarter to a half above the control, in often repeated tests (any T/C) and in doses without a T/C. Further doses and runs are listed elsewhere. T/C: endpoint of the treated group in % of that of the vehicle group. Some entries give survivors of the animals treated and no T/C: the source files T/C as zero there, which appears to mark a toxic dose or a test without result, not a measured value. Some doses without a T/C left all or most animals alive at the check, yet need not have been tolerated: the source hardly ever lists a survival T/C far under the control, and the zero likely stands for such cases as well. Counts of survivors are from the toxicity check (mostly the fifth day) where no day follows; animals may have died later. Schedules are NCI's codes, taken here to give the interval after Q, in days (D) or hours (H), and the number of doses after X. Some entries hold several experiments; their values stand side by side, smallest first. Where survival is the endpoint, the PubChem record calls one and a half times the control and up active, and a quarter to a half above the control has no call in these data; cut-offs in other NCI protocols can differ. Some T/C values carry the count of animals alive at the toxicity check (mostly the fifth day); where none is given, no animal had died by that day.

System: CD2F1 mice, L1210 leukemia ip, survival T/C
Assay: NCI In Vivo Anticancer Drug Screen. Data for tumor model L1210 Leukemia (intraperitoneal) in CD2F1 (CDF1) mice
Details: higher T/C = longer survival
Procedure, shortened: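 Compound-dosed mice with transplantable tumor versus matched vehicle controls; endpoint ratio T/C reported.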

[1] = T/C endpoint: mean survival time, dose: 400.0 mg/kg/injection, schedule: Q01DX009 (ip), vehicle: saline with Tween-80
[2] = T/C endpoint: mean survival time, dose: 200.0 mg/kg/injection, schedule: Q01DX009 (ip), vehicle: saline with Tween-80
[3] = T/C endpoint: mean survival time, dose: 400.0 mg/kg/injection, schedule: Q04DX002 (ip), vehicle: saline with Tween-80
[4] = T/C endpoint: mean survival time, dose: 100.0 mg/kg/injection, schedule: Q04DX003 (ip), vehicle: saline with Tween-80
[5] = T/C endpoint: mean survival time, dose: 200.0 mg/kg/injection, schedule: Q04DX003 (ip), vehicle: saline with Tween-80
[6] = T/C endpoint: mean survival time, dose: 400.0 mg/kg/injection, schedule: Q04DX003 (ip), vehicle: saline with Tween-80

**Q.** How did the survivor count (T/C endpoint: mean survival time, dose: 100.0 mg/kg/injection, schedule: Q01DX001 (ip), vehicle: saline) turn out when Nc1ncnc2c1c(I)cn2C1OC(CO)C(O)C1O (stereo not given) was run?
**A.** Its survivor count is 0 of 6.

**Q.** What about the survivor count (T/C endpoint: mean survival time, dose: 200.0 mg/kg/injection, schedule: Q01DX001 (ip), vehicle: saline) of the same compound?
**A.** Its survivor count is 0 of 6.

**Q.** What about the survivor count (T/C endpoint: mean survival time, dose: 400.0 mg/kg/injection, schedule: Q01DX001 (ip), vehicle: saline) of the same compound?
**A.** The survivor count was 0 of 6.

**Q.** With O=S(O)C(=NCc1ccccc1)NCc1ccccc1 as the compound, how does the survivor count [1] read?
**A.** The survivor count was 0 of 6.

**Q.** What does the source list for CC1CC(C)(C)CC(=O)O1 (stereo not given)?
**A.** survivor count (T/C endpoint: mean survival time, dose: 150.0 mg/kg/injection, schedule: Q01DX001 (ip), vehicle: saline): 1 of 6; survivor count (T/C endpoint: mean survival time, dose: 300.0 mg/kg/injection, schedule: Q01DX001 (ip), vehicle: saline): 0 of 6

**Q.** What does the source list for Cc1cc([N+](=O)[O-])ccc1NC(=S)NC(=O)COc1ccccc1?
**A.** survivor count [2]: 6 of 6; survivor count [1]: 3 of 3; survivor count [3]: 3 of 3

**Q.** For CN(C)c1ccc(/C=N/NC(=O)c2ccccc2N)c(Cl)c1, which survivor count [1] is on record?
**A.** Its survivor count is 6 of 6.

**Q.** Which survivor count (T/C endpoint: mean survival time, dose: 400.0 mg/kg/injection, schedule: Q01DX009 (ip), vehicle: water) does the source give for Cc1cnccc1Br here?
**A.** Its survivor count is 3 of 6.

**Q.** How did the T/C (T/C endpoint: mean survival time, dose: 25.0 mg/kg/injection, schedule: Q01DX009 (ip), vehicle: saline with Tween-80) turn out when COc1cc2c(c(OC)c1OC)-c1cc(I)c(O)cc1[C@@H](NC(C)=O)CC2 was run?
**A.** Its T/C is 136 % of control.

**Q.** What about the T/C (T/C endpoint: mean survival time, dose: 50.0 mg/kg/injection, schedule: Q01DX009 (ip), vehicle: saline with Tween-80) of the same compound?
**A.** Its T/C is 132 % of control.

**Q.** What about the survivor count (T/C endpoint: mean survival time, dose: 132.0 mg/kg/injection, schedule: Q01DX009 (ip), vehicle: saline with Tween-80) of the same compound?
**A.** Its survivor count is 6 of 6.

**Q.** And the survivor count [2]?
**A.** Its survivor count is 6 of 6.

**Q.** And the survivor count (T/C endpoint: mean survival time, dose: 300.0 mg/kg/injection, schedule: Q01DX009 (ip), vehicle: saline with Tween-80)?
**A.** Its survivor count is 5 of 6.

**Q.** Which results are given for CS(=O)(=O)OCCCCOS(C)(=O)=O?
**A.** survivor count (T/C endpoint: mean survival time, dose: 60.0 mg/kg/injection, schedule: Q01DX009 (oral), vehicle: saline with Tween-80): 5 of 10; survivor count (T/C endpoint: mean survival time, dose: 120.0 mg/kg/injection, schedule: Q01DX001 (oral), vehicle: saline with Tween-80): 5 of 10; survivor count (T/C endpoint: mean survival time, dose: 120.0 mg/kg/injection, schedule: Q01DX009 (oral), vehicle: saline with Tween-80): 0 of 10; survivor count (T/C endpoint: mean survival time, dose: 120.0 mg/kg/injection, schedule: Q04DX003 (ip), vehicle: saline with Tween-80): 10 of 10; survivor count (T/C endpoint: mean survival time, dose: 240.0 mg/kg/injection, schedule: Q01DX001 (ip), vehicle: saline with Tween-80): 6 of 10; survivor count (T/C endpoint: mean survival time, dose: 240.0 mg/kg/injection, schedule: Q01DX001 (oral), vehicle: saline with Tween-80): 1 of 10; survivor count (T/C endpoint: mean survival time, dose: 240.0 mg/kg/injection, schedule: Q04DX003 (ip), vehicle: saline with Tween-80): 7 of 10; survivor count (T/C endpoint: mean survival time, dose: 480.0 mg/kg/injection, schedule: Q01DX001 (oral), vehicle: saline with Tween-80): 0 of 10

**Q.** O=C(CSC1=NCCN1)c1ccc([N+](=O)[O-])cc1 was tested. Which survivor count [4] did it give?
**A.** The survivor count was 6 of 6.

**Q.** What about the survivor count [5] of the same compound?
**A.** Its survivor count is 0 of 6.

**Q.** What about the survivor count [6] of the same compound?
**A.** Its survivor count is 0 of 6.

**Q.** How did the survivor count (T/C endpoint: mean survival time, dose: 200.0 mg/kg/injection, schedule: Q01DX001 (ip), vehicle: saline with Tween-80) turn out when O=C1C2C(c3ccccc3)=C(c3ccccc3)C1[C@@]1(c3ccccc3)C(c3ccccc3)=CC(=O)[C@@H]21 (stereo not given in full) was run?
**A.** Its survivor count is 6 of 6.

**Q.** Which survivor count (T/C endpoint: mean survival time, dose: 200.0 mg/kg/injection, schedule: Q04DX002 (ip), vehicle: saline with Tween-80) does the source give for S=c1nccc[nH]1 here?
**A.** Its survivor count is 0 of 3.

**Q.** What about the survivor count [3] of the same compound?
**A.** The survivor count was 0 of 3.

**Q.** For Cc1[nH]ccc2c(C)c3nc4ccccc4c3cc12, which T/C (T/C endpoint: mean survival time, dose: 66.0 mg/kg/injection, schedule: Q04DX003 (ip), vehicle: saline with Tween-80) is on record?
**A.** The T/C was 140 % of control.

**Q.** And the T/C [4]?
**A.** Its T/C is 136 and 138 % of control.

**Q.** And the T/C (T/C endpoint: mean survival time, dose: 150.0 mg/kg/injection, schedule: Q04DX003 (ip), vehicle: saline with Tween-80)?
**A.** The T/C was 136 % of control [5 of 6 alive].

**Q.** And the survivor count [2]?
**A.** The survivor count was 5 of 6.

**Q.** And the survivor count [6]?
**A.** The survivor count was 6 of 6.

**Q.** With CN/N=C1\CCC2(C)C(CCC3C4CCC(O)C4(C)CCC32)C1 (stereo not given) as the compound, how does the survivor count (T/C endpoint: mean survival time, dose: 100.0 mg/kg/injection, schedule: Q01DX009 (ip), vehicle: Klucel (hydroxypropylcellulose) (HPC)) read?
**A.** The survivor count was 3 of 6.

**Q.** And the survivor count (T/C endpoint: mean survival time, dose: 200.0 mg/kg/injection, schedule: Q01DX009 (ip), vehicle: Klucel (hydroxypropylcellulose) (HPC))?
**A.** The survivor count was 0 of 6.

**Q.** What does the source list for CC(C)C1(C(=O)NNC(=O)CCCc2ccc(N(CCCl)CCCl)cc2)OC2(O)CCCCCN2C1=O (stereo not given)?
**A.** T/C (T/C endpoint: mean survival time, dose: 50.0 mg/kg/injection, schedule: Q04DX003 (ip), vehicle: DMSO): 127 % of control; survivor count (T/C endpoint: mean survival time, dose: 100.0 mg/kg/injection, schedule: Q04DX003 (ip), vehicle: DMSO): 6 of 6

**Q.** With OCCN1CCN(CC/C=C2\c3ccccc3Sc3ccc(Cl)cc32)CC1 as the compound, how does the T/C (T/C endpoint: mean survival time, dose: 25.0 mg/kg/injection, schedule: Q01DX009 (ip), vehicle: saline) read?
**A.** Its T/C is 138 % of control.

**Q.** How did the survivor count [6] turn out when COc1ccc2c(c1)CCN1C2CCN2CCCC21 (stereo not given) was run?
**A.** The survivor count was 6 of 6.

**Q.** Which survivor count [5] does the source give for O=Cc1[nH]c(=S)[nH]c(=O)c1Cc1ccc(Cl)cc1 here?
**A.** Its survivor count is 6 of 6.

**Q.** And the survivor count [6]?
**A.** The survivor count was 5 of 6.

**Q.** How did the survivor count (T/C endpoint: mean survival time, dose: 80.0 mg/kg/injection, schedule: Q01DX009 (ip), vehicle: saline) turn out when CCCC(C)C1(CC)C(=O)NC(=O)NC1=O (stereo not given) was run?
**A.** The survivor count was 5 of 6.

**Q.** For COc1ccc(C(Br)C(C)Br)cc1 (stereo not given), which survivor count [6] is on record?
**A.** Its survivor count is 2 of 6.

**Q.** Which results are given for CCOC(=O)c1ccc(NN=NCCF)cc1?
**A.** T/C (T/C endpoint: median survival time, dose: 12.5 mg/kg/injection, schedule: Q01DX009 (ip), vehicle: distilled water + Tween-80): 133 % of control [5 of 6 alive]; survivor count (T/C endpoint: median survival time, dose: 50.0 mg/kg/injection, schedule: Q01DX009 (ip), vehicle: distilled water + Tween-80): 1 of 6 and 3 of 6

**Q.** CC(C)CC1(C(C)C)C(=O)NC(=S)NC1=O was tested. Which survivor count (T/C endpoint: mean survival time, dose: 80.0 mg/kg/injection, schedule: Q01DX001 (ip), vehicle: saline) did it give?
**A.** The survivor count was 0 of 6.

**Q.** What does the source list for CSc1ncc(Br)c(Sc2nc(N)nc3nc[nH]c23)n1?
**A.** T/C (T/C endpoint: mean survival time, dose: 6.7 mg/kg/injection, schedule: Q01DX001 (ip), vehicle: saline with Tween-80): 141 % of control; T/C (T/C endpoint: mean survival time, dose: 10.0 mg/kg/injection, schedule: Q01DX001 (ip), vehicle: saline with Tween-80): 148 % of control
